Results published in the supplement of paper PMC9233669.
Variants at the background level are over-represented here.

Tests used:
biotinyl-Ile-oxazolone = test: self-aminoacylation, catalytic enhancement (BIO) (fold over background); higher = more active; k-Seq, kA / k0A0; sequences stand for … in GGGAAUGGAUCCACAUCUACGAAUUC…UUCACUGCAGACUUGACGAAGCUG
How it was run: (§1)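 The uncatalyzed rate is the low-activity peak of a bimodal Gaussian fit, and catalytic enhancement is median kA divided by it. The kA values came from pseudo-first-order fits, with 1000 bootstraps, of per-sequence fraction reacted measured by streptavidin capture, triplicate qPCR and Illumina sequencing. Mutagenized RNA pools with a 21-nt variable region (0.43 μM) were reacted with each biotinyl-aminoacyl-oxazolone at 2–1250 μM in 50 μL HEPES/NaCl/KCl/MgCl2/CaCl2 buffer with 5% acetonitrile, pH 6.9–7.0, for 90 minutes at room temperature.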

biotinyl-Met-oxazolone = test: self-aminoacylation, catalytic enhancement (BMO) (fold over background); higher = more active; k-Seq, kA / k0A0; sequences stand for … in GGGAAUGGAUCCACAUCUACGAAUUC…UUCACUGCAGACUUGACGAAGCUG
How it was run: as §1

biotinyl-Val-oxazolone = test: self-aminoacylation, catalytic enhancement (BVO) (fold over background); higher = more active; k-Seq, kA / k0A0; sequences stand for … in GGGAAUGGAUCCACAUCUACGAAUUC…UUCACUGCAGACUUGACGAAGCUG
How it was run: as §1

biotinyl-Leu-oxazolone = test: self-aminoacylation, catalytic enhancement (BLO) (fold over background); higher = more active; k-Seq, kA / k0A0; sequences stand for … in GGGAAUGGAUCCACAUCUACGAAUUC…UUCACUGCAGACUUGACGAAGCUG
How it was run: as §1

Row | Sequence | self-aminoacylation (biotinyl-Ile-oxazolone) | self-aminoacylation (biotinyl-Met-oxazolone) | self-aminoacylation (biotinyl-Val-oxazolone) | self-aminoacylation (biotinyl-Leu-oxazolone)
1 | AAACACUUCAAGCAAUCGGUC [Fam1B.1 aminoacylation ribozyme variant] | 1.54 | 1.5 | 1.41 | 1.55
2 | AAAUUUGCUAAUAGUCGCAAA [Fam3.1 aminoacylation ribozyme variant] | 3.32 | – | – | –
3 | AAAUUUGCUAAUAGUCGCAAG [Fam3.1 aminoacylation ribozyme variant] | 1.79 | 1.58 | 1.54 | 1.53
4 | AACUUUGCUAAUAGUCGCAAG [Fam3.1 aminoacylation ribozyme variant] | – | – | 1.93 | –
5 | AACUUUUCUAAUAGUCGCAAG [Fam3.1 aminoacylation ribozyme variant] | 1.97 | 2.11 | 1.71 | –
6 | AAGUAUGCUAAUAGUCGCGAG [Fam3.1 aminoacylation ribozyme variant] | – | 1.7 | 1.68 | –
7 | AAGUUCGCUAAUAGUCGCAAC [Fam3.1 aminoacylation ribozyme variant] | 1.91 | – | 1.53 | 1.54
8 | AAGUUUGCCAAUAGGCGCAAG [Fam3.1 aminoacylation ribozyme variant] | 1.04 | – | 1.02 | –
9 | AAGUUUGCUAAUAGUUGCAAU [Fam3.1 aminoacylation ribozyme variant] | 1.26 | – | – | –
10 | AAUACCCUGGUCAUCGAGUGG [Fam2.1 aminoacylation ribozyme variant] | 1.64 | – | 1.83 | –
11 | ACACGCUUCAAGCAAUCGGUC [Fam1B.1 aminoacylation ribozyme variant] | 1.99 | 1.96 | 1.9 | –
12 | AUAACUCUGGUCAUCGAGUGA [Fam2.1 aminoacylation ribozyme variant] | 3.06 | – | 3.04 | –
13 | AUACACCUAGGUCAACGGGUG [Fam2.2 aminoacylation ribozyme variant] | 1.66 | – | 1.82 | –
14 | AUGACCUUGGUCAUCGAGUGA [Fam2.1 aminoacylation ribozyme variant] | 3.22 | – | 3.1 | –
15 | AUUAACCUAGAUCAUCGGGUG [Fam2.2 aminoacylation ribozyme variant] | 1.9 | – | 1.62 | –
16 | AUUACACUGGUCAUCAAGUGA [Fam2.1 aminoacylation ribozyme variant] | 1.48 | – | 1.6 | –
17 | AUUACCCAGGUCAUCGUGUGA [Fam2.1 aminoacylation ribozyme variant] | 1.87 | – | 1.98 | –
18 | AUUACCCUAGACAUCGAGUGA [Fam2.1 aminoacylation ribozyme variant] | 3.77 | – | 4.07 | –
19 | AUUACCCUGCUCUUCGAGUGA [Fam2.1 aminoacylation ribozyme variant] | 1.35 | – | 1.79 | –
20 | AUUACCCUGGCCAACGAGUGA [Fam2.1 aminoacylation ribozyme variant] | 1.77 | – | 1.94 | –

Row | Sequence | self-aminoacylation (biotinyl-Ile-oxazolone) | self-aminoacylation (biotinyl-Met-oxazolone) | self-aminoacylation (biotinyl-Val-oxazolone) | self-aminoacylation (biotinyl-Leu-oxazolone)
21 | AUUACCCUGGCCUUCGAGUGA [Fam2.1 aminoacylation ribozyme variant] | 1.83 | – | – | –
22 | AUUACCCUGGUCAUCGCGUCA [Fam2.1 aminoacylation ribozyme variant] | 1.92 | – | – | –
23 | AUUACCCUGGUUAUCAAGUGA [Fam2.1 aminoacylation ribozyme variant] | 1.71 | – | 1.66 | –
24 | AUUACCGUGGUGAUCGAGUGA [Fam2.1 aminoacylation ribozyme variant] | 1.9 | – | – | –
25 | AUUACCUUGGUCCUCGAGUGA [Fam2.1 aminoacylation ribozyme variant] | 1.83 | – | – | –
26 | AUUACUCUGGUCAUCGUGUGA [Fam2.1 aminoacylation ribozyme variant] | 1.46 | – | 1.35 | –
27 | AUUCACCAAGGUCAUCGGGGG [Fam2.2 aminoacylation ribozyme variant] | – | – | 1.61 | –
28 | AUUCACCUAAUUCAUCGGGUG [Fam2.2 aminoacylation ribozyme variant] | 1.74 | – | 1.82 | –
29 | AUUCACCUAGGACAACGGGUG [Fam2.2 aminoacylation ribozyme variant] | 1.79 | – | 1.71 | –
30 | AUUCACCUAGGGCAUCUGGUG [Fam2.2 aminoacylation ribozyme variant] | 2.11 | – | 2.33 | –
31 | AUUCACCUAGUUCAUCGGGUG [Fam2.2 aminoacylation ribozyme variant] | 1.95 | – | – | –
32 | AUUCACCUAUGUCAUGGGGUG [Fam2.2 aminoacylation ribozyme variant] | 1.97 | – | – | –
33 | AUUCCCCUAGGUCUUCGGGUG [Fam2.2 aminoacylation ribozyme variant] | 13.7 | – | – | –
34 | AUUCCCCUCGGUCAUCGGGUG [Fam2.2 aminoacylation ribozyme variant] | 14.8 | 21.1 | 14 | –
35 | AUUCUCCUACGUCAUCGGGUG [Fam2.2 aminoacylation ribozyme variant] | 4.89 | 6.97 | 5.36 | –
36 | AUUCUCCUGGUCAUCGAGUGA [Fam2.1 aminoacylation ribozyme variant] | 3.67 | – | 3.89 | –
37 | AUUUACCUAGUUCAUCGGGUG [Fam2.2 aminoacylation ribozyme variant] | – | – | 1.9 | –
38 | CCACACCUCAAGCAAUCGCUC [Fam1B.1 aminoacylation ribozyme variant] | – | – | 1.75 | –
39 | CCACCCUUCAAGCAAUCGGCC [Fam1B.1 aminoacylation ribozyme variant] | 1.58 | 1.56 | – | 1.66
40 | CCACUCUUCAAGCAAUAGGUC [Fam1B.1 aminoacylation ribozyme variant] | 0.784 | – | 0.668 | –

Row | Sequence | self-aminoacylation (biotinyl-Ile-oxazolone) | self-aminoacylation (biotinyl-Met-oxazolone) | self-aminoacylation (biotinyl-Val-oxazolone) | self-aminoacylation (biotinyl-Leu-oxazolone)
41 | CCACUCUUCAAGCAAUCGGCC [Fam1B.1 aminoacylation ribozyme variant] | 1.66 | 1.71 | – | –
42 | CCCCACUUCAAACAAUCGGUC [Fam1B.1 aminoacylation ribozyme variant] | 1.93 | 2 | – | –
43 | CCCCACUUCAAGCAAUCGGUU [Fam1B.1 aminoacylation ribozyme variant] | 2.66 | – | 3.68 | –
44 | CCCCACUUCAAGUAAUCGGUC [Fam1B.1 aminoacylation ribozyme variant] | 1.71 | 1.55 | 1.75 | –
45 | CGACUUCAAACAAUCGGUGUG [Fam1A.1 aminoacylation ribozyme variant] | 1.89 | 1.96 | 1.59 | –
46 | CUAAUUCAAACAAUCGGUGUG [Fam1A.1 aminoacylation ribozyme variant] | 0.75 | – | 0.659 | –
47 | CUACUCCAAACAAUCCGUCUG [Fam1A.1 aminoacylation ribozyme variant] | 0.838 | 0.636 | 0.821 | –
48 | CUACUUAAAACAAUCGCUCUG [Fam1A.1 aminoacylation ribozyme variant] | 0.623 | – | 0.727 | –
49 | CUACUUCAAACAAUCUAUCUG [Fam1A.1 aminoacylation ribozyme variant] | 0.507 | 0.461 | 0.579 | –
50 | CUACUUCACACAGUCGGUCUG [Fam1A.1 aminoacylation ribozyme variant] | 0.65 | – | 0.731 | –
51 | CUACUUCAUAGAAUCGGUCUG [Fam1A.1 aminoacylation ribozyme variant] | 0.783 | 0.75 | 0.749 | –
52 | CUACUUGAAACAAUCGGACUG [Fam1A.1 aminoacylation ribozyme variant] | 0.922 | – | 0.786 | –
53 | CUAGUUCAAAAAAUCGGUCUG [Fam1A.1 aminoacylation ribozyme variant] | 0.934 | – | 0.752 | –
54 | CUUACCCUGGUCAUCGAGUCA [Fam2.1 aminoacylation ribozyme variant] | 0.742 | 0.897 | 1.07 | –
55 | CUUCACCUAGCUCAUCGGGUG [Fam2.2 aminoacylation ribozyme variant] | 1.76 | – | 2.37 | –
56 | GCACACUUCAAACAAUCGGUC [Fam1B.1 aminoacylation ribozyme variant] | 1.98 | – | – | –
57 | GUUCACCUAGGUCAUAGGGUG [Fam2.2 aminoacylation ribozyme variant] | 1.59 | 1.5 | 1.4 | –
58 | GUUCACCUUGGUCAUCGGGUG [Fam2.2 aminoacylation ribozyme variant] | 3.45 | – | – | –
59 | GUUCAUCUAGGUCAUCGGGUG [Fam2.2 aminoacylation ribozyme variant] | 4.19 | 5.79 | 3.72 | –
60 | UUUACCCUGGUCAUCGAGUUA [Fam2.1 aminoacylation ribozyme variant] | 3.03 | – | – | –
